No constants are given. Whether binding was seen depends on the method and setting. Some entries that bind do so weakly or less than the wild type.

Assay [1] concerns the target T1, cathepsin G (Calbiochem) (UniProt P08311).
T1 sequence (looked up): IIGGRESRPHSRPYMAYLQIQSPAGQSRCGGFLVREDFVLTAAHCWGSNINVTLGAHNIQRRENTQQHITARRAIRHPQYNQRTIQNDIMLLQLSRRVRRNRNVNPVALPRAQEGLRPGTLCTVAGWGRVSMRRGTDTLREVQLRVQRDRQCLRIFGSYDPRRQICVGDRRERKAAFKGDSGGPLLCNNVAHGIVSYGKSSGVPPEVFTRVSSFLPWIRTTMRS
Briefly: plate assay: dilution series of ACT on cathepsin G-coated plate, detected with anti-ACT antibody, absorbance 490 nm; no absorbance values printed.

In assay [2] the target is T1, cathepsin G (Calbiochem). Briefly: plate assay: cathepsin G coated on microtiter plate, bound ACT detected with rabbit anti-human ACT antibody and AP-coupled secondary antibody, absorbance 490 nm.

B1: commercially available ACT (Calbiochem) (protein)
chain: NSPLDEENLTQENQDRGTHVDLGLASANVDFAFSLYKQLVLKAPDKNVIFSPLSISTALAFLSLGAHNTTLTEILKGLKFNLTETSEAEIHQSFQHLLRTLNQSSDELQLSMGNAMFVKEQLSLLDRFTEDAKRLYGSEAFATDFQDSAAAKKLINDYVKNGTRGKITDLIKDLDSQTMMVLVNYIFFKAKWEMPFDPQDTHQSRFYLSKKKWVMVPMMSLHHLTIPYFRDEELSCTVVELKYTGNASALFILPDQDKMEEVEAMLLPETLKRWRDSLEFREIGELYLPKFSISRDYNLNDILLQLGIEEAFTSKADLSGITGARNLAVSQVVHKAVLDVFEEGTEASAATAVKITLLSALVETRTIVRFNRPFLMIIVPTDTQNIFFMSKVTNPKQA
For the molecule B1, the binding result in the assay with cathepsin G (Calbiochem) [1] was “binds”.

B2: active ACT polypeptides (alpha 1-antichymotrypsin) from human wound exudates (protein, UniProt P01011 24-423, looked up)
chain: HPNSPLDEENLTQENQDRGTHVDLGLASANVDFAFSLYKQLVLKAPDKNVIFSPLSISTALAFLSLGAHNTTLTEILKGLKFNLTETSEAEIHQSFQHLLRTLNQSSDELQLSMGNAMFVKEQLSLLDRFTEDAKRLYGSEAFATDFQDSAAAKKLINDYVKNGTRGKITDLIKDLDSQTMMVLVNYIFFKAKWEMPFDPQDTHQSRFYLSKKKWVMVPMMSLHHLTIPYFRDEELSCTVVELKYTGNASALFILPDQDKMEEVEAMLLPETLKRWRDSLEFREIGELYLPKFSISRDYNLNDILLQLGIEEAFTSKADLSGITGARNLAVSQVVHKAVLDVFEEGTEASAATAVKITLLSALVETRTIVRFNRPFLMIIVPTDTQNIFFMSKVTNPKQA
Take B2: the binding result in the assay with cathepsin G (Calbiochem) [2] is given as “binds”.
